Data published in paper PMC9132451.
These are yes or no findings as the source states them, for the method shown. For part of these data: A result given as binding can be weak or reduced; the word gives no strength. For part of these data: Binding seen in cells or lysates may run through a third protein.

Amino acid sequences for entries named in this document (tags omitted). A change or cut given only in a name is not applied to a line headed by its entry. Residues count along the entry.
UniProt Q7M6Y3: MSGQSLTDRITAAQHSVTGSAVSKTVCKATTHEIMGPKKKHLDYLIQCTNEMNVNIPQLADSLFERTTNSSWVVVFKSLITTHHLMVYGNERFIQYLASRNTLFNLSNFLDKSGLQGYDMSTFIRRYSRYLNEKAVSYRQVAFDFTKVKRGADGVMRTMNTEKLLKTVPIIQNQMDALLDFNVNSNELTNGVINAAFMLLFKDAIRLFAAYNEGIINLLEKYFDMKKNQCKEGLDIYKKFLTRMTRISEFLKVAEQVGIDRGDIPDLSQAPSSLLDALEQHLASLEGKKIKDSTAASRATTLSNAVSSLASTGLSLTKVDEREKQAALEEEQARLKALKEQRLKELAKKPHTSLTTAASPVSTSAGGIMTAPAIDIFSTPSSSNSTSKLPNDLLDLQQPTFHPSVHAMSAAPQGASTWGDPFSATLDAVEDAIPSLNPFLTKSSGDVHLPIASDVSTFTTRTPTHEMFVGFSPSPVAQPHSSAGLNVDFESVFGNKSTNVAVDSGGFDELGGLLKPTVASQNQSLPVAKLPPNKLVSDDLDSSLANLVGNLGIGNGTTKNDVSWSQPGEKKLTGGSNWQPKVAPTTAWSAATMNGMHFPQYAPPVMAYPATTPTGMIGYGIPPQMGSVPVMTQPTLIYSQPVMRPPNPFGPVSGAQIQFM
UniProt P19490: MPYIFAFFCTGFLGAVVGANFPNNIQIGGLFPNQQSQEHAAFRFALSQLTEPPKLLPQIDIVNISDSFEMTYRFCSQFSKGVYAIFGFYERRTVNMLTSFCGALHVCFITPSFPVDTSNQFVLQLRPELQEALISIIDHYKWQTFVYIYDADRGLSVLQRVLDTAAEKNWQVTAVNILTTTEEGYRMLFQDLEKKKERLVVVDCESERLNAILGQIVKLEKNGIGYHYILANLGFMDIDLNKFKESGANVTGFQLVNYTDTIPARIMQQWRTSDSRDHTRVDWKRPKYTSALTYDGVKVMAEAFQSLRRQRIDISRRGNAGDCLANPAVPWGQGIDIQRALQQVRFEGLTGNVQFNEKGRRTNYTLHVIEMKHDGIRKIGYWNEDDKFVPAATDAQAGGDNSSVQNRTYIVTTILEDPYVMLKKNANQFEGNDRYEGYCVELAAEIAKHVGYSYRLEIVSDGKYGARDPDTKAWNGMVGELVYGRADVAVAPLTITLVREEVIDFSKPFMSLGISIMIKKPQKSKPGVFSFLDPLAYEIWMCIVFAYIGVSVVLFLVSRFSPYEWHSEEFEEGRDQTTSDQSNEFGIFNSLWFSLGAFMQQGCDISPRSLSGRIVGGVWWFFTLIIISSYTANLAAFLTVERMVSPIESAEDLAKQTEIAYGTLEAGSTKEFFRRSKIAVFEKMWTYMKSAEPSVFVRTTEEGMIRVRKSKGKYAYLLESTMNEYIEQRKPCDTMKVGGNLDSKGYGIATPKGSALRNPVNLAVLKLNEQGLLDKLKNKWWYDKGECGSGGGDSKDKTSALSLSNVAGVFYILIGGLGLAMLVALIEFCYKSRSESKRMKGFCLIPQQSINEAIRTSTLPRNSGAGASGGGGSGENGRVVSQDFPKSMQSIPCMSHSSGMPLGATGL
UniProt Q01097, residues 27-1482: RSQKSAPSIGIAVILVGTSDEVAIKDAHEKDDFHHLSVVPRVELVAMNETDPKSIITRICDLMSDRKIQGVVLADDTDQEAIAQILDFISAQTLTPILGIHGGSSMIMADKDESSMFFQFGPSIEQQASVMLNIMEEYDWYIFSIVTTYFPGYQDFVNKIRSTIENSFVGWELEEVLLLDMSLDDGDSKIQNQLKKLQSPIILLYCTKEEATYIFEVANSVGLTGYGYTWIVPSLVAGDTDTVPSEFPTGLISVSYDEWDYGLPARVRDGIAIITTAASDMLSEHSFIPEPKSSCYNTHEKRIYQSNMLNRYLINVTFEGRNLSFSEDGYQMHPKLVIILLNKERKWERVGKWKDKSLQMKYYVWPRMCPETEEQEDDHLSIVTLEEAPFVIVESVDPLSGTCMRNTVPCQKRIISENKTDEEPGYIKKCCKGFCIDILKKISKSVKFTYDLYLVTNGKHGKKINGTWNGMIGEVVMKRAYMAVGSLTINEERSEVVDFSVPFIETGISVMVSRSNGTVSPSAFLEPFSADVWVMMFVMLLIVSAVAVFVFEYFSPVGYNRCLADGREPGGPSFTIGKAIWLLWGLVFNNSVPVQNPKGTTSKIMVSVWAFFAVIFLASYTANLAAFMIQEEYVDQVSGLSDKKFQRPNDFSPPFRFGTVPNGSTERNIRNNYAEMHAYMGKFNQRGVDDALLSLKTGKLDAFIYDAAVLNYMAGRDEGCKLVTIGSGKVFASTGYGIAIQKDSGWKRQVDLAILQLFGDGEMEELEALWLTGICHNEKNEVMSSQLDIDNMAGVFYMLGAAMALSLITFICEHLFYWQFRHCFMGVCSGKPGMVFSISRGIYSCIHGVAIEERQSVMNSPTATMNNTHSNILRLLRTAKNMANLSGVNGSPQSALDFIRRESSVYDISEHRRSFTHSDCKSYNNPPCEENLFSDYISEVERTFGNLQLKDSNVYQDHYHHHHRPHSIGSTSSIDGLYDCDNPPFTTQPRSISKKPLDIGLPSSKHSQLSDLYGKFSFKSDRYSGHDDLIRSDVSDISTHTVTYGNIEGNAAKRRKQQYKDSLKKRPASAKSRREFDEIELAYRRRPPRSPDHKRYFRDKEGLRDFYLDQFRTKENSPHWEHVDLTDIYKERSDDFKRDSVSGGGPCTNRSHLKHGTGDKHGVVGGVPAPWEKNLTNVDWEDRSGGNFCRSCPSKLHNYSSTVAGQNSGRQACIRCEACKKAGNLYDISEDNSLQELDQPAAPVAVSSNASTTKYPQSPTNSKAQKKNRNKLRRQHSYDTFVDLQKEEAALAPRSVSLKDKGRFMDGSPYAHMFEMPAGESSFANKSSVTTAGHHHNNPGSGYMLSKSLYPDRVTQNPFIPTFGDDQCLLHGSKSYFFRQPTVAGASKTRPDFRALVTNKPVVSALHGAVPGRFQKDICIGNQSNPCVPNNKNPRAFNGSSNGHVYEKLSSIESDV

Experiments:
GST-ANTH domain of CALM = GST-ANTH domain of CALM (UniProt Q7M6Y3); test: condition: 30 μg GST-fusion protein with 4 mg of whole mouse brain extract; pull-down; 30 μg GST or GST-fusion protein on Glutathione Sepharose beads with 4 mg whole mouse brain extract (10 mM HEPES, 1% Triton X-100), overnight, 4°C; immunoblotting; only the target purified
[1] = molecular target: GST-tagged cytoplasmic tail of GluA1 (UniProt P19490); test: pull-down; in vitro binding: 5 μg recombinant purified GST or GST-fusion protein (on beads) with 5 μg His-fusion protein in 300 μl 20 mM HEPES pH 7.4, 100 mM NaCl, 2 mM MgCl2, 0.1% saponin, 1 hour, 4°C; immunoblotting with GST- and His-tag antibodies; both purified

Substance | binding (GST-ANTH domain of CALM) | binding [1]
GluN2A (NMDAR subunit), endogenous (from UniProt P35436 23-1464) (receptor) | no binding | –
GluN2B (NMDAR subunit), endogenous (from UniProt Q01097 27-1482) (receptor) | no binding | –
His6-tagged ANTH domain of CALM, wild type (from UniProt Q7M6Y3) (domain or fragment) | – | binds
